Laboratory results published in paper PMC12311259, “Antifibrotic effects of specific targeting of the 5‐hydroxytryptamine 2B receptor (5‐HT2BR) in murine models and ex vivo models of scleroderma skin” (Arthritis & Rheumatology (Hoboken, N.j.), 2025).

How the values were obtained:
[1] = test system: cGvHD-induced skin fibrosis; experiment: Sclerodermatous cGvHD mouse model (B10.D2 to BALB/c), skin fibrosis incl. RNASeq and immunofluorescence of skin; type: in vivo
Method: AM1476 was dissolved in sterile distilled water for the ex vivo and in vivo experiments. A concentration of 30 μM was applied for the ex vivo experiment. For the in vivo experiments, 1, 3, or 10 mg/kg was administered orally once or twice daily.
The B10.D2→BALB/c (H‐2d) minor histocompatibility antigen–mismatched model was performed as described.[9], [10] Briefly, female BALB/c (H‐2d) mice were purchased from Janvier. Male B10.D2 (H‐2d) mice were initially purchased from Jackson Laboratory. All mice were maintained in specific pathogen‐free conditions with sterile pellet food and water and a normal day–night cycle. For isolation of unfractionated bone marrow cells, tibial and femoral bones were prepared under sterile conditions. Phosphate buffered saline (PBS) was used to flush bone marrow cells from bone marrow cavities. Subsequently, bone marrow cells were filtered through 70‐μm nylon meshes (BD Biosciences), followed by erythrocyte hemolysis. The remaining bone marrow cells were kept on ice until transplantation. Transplantation of bone marrow cells and splenocytes was performed as follows: Recipient mice (BALB/c [H‐2d]) eight weeks of age received total body irradiation with 750 cGy. Six hours after irradiation, all BALB/c (H‐2d) recipients received bone marrow from either BALB/c (H‐2d) in a syngeneic transplantation manner or B10.D2 (H‐2d) in an allogeneic transplantation manner. For transplantation, 5 × 10[6] splenocytes and 2 × 10[6] bone marrow cells from donor mice were resuspended in 0.2 mL of PBS and injected via tail veins.[9], [10] To reflect the clinical situation with treatment initiation upon clinical signs of chronic graft‐versus‐host disease (cGvHD), treatment was started 21 days after bone marrow transplantation (BMT) and thus after the first clinically detectable manifestations of cGvHD in allogeneically transplanted mice. The outcome of treatment was analyzed seven weeks after transplantation. Eight mice per group were analyzed.
Mice were monitored clinically on a daily basis for behavior, activity, texture of the fur, weight, and consistency of the stool.[13] After the mice were killed, a gross macroscopic evaluation of the lungs and the skin was performed.
Recipient mice were clinically monitored on a daily basis from the day of transplantation to the indicated days after transplantation to determine the incidence and severity of cutaneous cGvHD as well as mobility, diarrhea, and weight loss.[10], [14] The following scoring system for cutaneous cGvHD was used: healthy appearance = 0; skin lesions with alopecia <1 cm[2] in area = 1; skin lesions with alopecia 1 to 2 cm[2] in area = 2; and skin lesions with alopecia >2 cm[2] in area = 3.
Skin samples were fixed in 4% formalin for six hours and embedded in paraffin. Five‐micrometer sections were cut and stained with hematoxylin and eosin (H&E). The dermal thickness was quantified on H&E‐stained sections using images captured with a light microscope (Nikon eclipse 80i) at 100‐fold magnification by manually measuring the distance between the epidermal‐dermal junction and the dermal‐subcutaneous fat junction at four sites per mouse.[15], [16] For lung samples, the whole left lung was fixed in 4% formalin for six hours and embedded in paraffin. Five‐micrometer sections were cut and stained with trichrome and sirius red. Histologic readouts were evaluation of the fibrotic area as the percentage of the total lung area in sirius red–stained sections (two sections per mouse) and quantification of pulmonary changes using the Ashcroft score (four sections per mouse).[17], [18]
The amount of collagen protein in skin and lung samples was determined by hydroxyproline assay.[19], [20] After digestion in 6 M HCl for three hours at 120°C, the pH of the samples was adjusted to a pH range of 6–7 with 6 M NaOH. Afterward, 0.06 M chloramine T was added to each sample and incubated for 20 minutes at room temperature.

PCS slices of SSc skin = experiment: Precision cut skin (PCS) slices of SSc skin, ex vivo, RNASeq and immunofluorescence; type: cell-based, human; conditions: 30 μM
[2] = RNASeq of skin, 10 mg/kg once daily vs vehicle, allogeneic
[3] = murine cGvHD skin, RNASeq, validated by immunofluorescence

For `C[C@@H]1CN(C(=N)N)N=C1c1ccc(F)cc1O` [AM1476], the “DEGs, down-regulated genes” value [1, 2] was 89, the “DEGs, up-regulated genes” value [1, 2] was 171 and the “differentially expressed genes (DEGs), total” value ([1]; RNASeq of skin, 10 mg/kg once daily vs vehicle, allogeneic, adjusted P ≤ 0.05, |log2FC| ≥ 1) was 260. The “levels of P-STAT3 and PAI-1” value ([1]; murine cGvHD skin) was “reduced”, the “MAOB and SLC6A4 expression” value [1, 3] was “up‐regulation” and the “proinflammatory chemokines (eg, CCL2, CCL5, CCL18)” value [1, 3] was “reduced”. The “GSEA, gene set graft_versus_host_disease” value (PCS slices of SSc skin) was “negatively regulated”, the “GSEA, peroxisome proliferator-activated receptor signaling pathway” value (PCS slices of SSc skin) was “induced” and the “DEGs, down-regulated” value (PCS slices of SSc skin; 48 hours, n = 9 patients) was 131. For the same compound, the “DEGs, up-regulated” value (PCS slices of SSc skin; 48 hours, n = 9 patients) was 294, the “differentially expressed genes (DEGs), total” value (PCS slices of SSc skin; 48 hours, n = 9 patients, vs donor-matched vehicle, P ≤ 0.05, |log2FC| ≥ 1) was 425 and the “levels of P-STAT3 and PAI-1” value (PCS slices of SSc skin; SSc-PCS) was “reduced”. For the same compound, the “proinflammatory chemokines (eg, CCL2, CCL5, CCL18)” value (PCS slices of SSc skin; SSc-PCS) was “reduced” and the “MAOB and SLC6A4 expression” value (PCS slices of SSc skin; SSc-PCS, RNASeq, validated by immunofluorescence) was “up‐regulation”.
